Some of the results follow.
Key:
Assay in all cases: log2 fold change, soluble protein after heating vs DMSO (PISA); higher = thermal stabilisation; K562 lysate, 10 uM; active = over 0.2 and 3.5 SD of the protein, either way, in both replicates (recomputed)
ibrutinib = compound: C=CC(=O)N1CCC[C@@H](n2nc(-c3ccc(Oc4ccccc4)cc3)c3c(N)ncnc32)C1 [ibrutinib]
Method in brief: (§1)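 A 30 min treatment with 10 μM compound was applied to crude K562 extract at 1 mg/mL protein in PBS pH 7.4 with 1 mM MgCl2. Heating for 3 min spanned 48°C-58°C, after which aliquots were pooled, adjusted to 0.5% NP-40 at 4°C and spun at 21,000xg for 90 min. TMTpro 16plex LC-MS/MS of the supernatant, with channel sums equalised, gave values recorded as log-two fold change in thermal stability against solvent controls, from duplicates.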

Protein sequences, listed by entry. Tags and fused reporters are not part of them. Lines headed by an entry give the natural chain unless they say otherwise; changes in a name come on top.
UniProt Q9H0R3: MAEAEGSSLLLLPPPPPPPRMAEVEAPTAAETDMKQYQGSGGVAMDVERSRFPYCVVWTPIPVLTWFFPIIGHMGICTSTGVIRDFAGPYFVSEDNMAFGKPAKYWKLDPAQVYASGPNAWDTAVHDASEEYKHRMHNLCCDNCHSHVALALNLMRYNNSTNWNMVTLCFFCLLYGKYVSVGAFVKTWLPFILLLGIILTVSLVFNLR
UniProt Q6ZT21: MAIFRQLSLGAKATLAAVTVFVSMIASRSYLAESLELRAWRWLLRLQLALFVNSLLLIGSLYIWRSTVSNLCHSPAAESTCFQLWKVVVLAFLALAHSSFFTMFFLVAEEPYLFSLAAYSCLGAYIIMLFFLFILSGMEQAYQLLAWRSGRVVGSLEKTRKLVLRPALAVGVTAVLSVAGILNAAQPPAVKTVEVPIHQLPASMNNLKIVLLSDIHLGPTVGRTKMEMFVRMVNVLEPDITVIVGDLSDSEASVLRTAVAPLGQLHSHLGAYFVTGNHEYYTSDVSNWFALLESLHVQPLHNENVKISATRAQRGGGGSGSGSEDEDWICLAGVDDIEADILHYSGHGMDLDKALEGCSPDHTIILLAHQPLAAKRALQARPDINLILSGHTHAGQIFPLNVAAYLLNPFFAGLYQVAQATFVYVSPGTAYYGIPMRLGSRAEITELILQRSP
UniProt Q8N9V7: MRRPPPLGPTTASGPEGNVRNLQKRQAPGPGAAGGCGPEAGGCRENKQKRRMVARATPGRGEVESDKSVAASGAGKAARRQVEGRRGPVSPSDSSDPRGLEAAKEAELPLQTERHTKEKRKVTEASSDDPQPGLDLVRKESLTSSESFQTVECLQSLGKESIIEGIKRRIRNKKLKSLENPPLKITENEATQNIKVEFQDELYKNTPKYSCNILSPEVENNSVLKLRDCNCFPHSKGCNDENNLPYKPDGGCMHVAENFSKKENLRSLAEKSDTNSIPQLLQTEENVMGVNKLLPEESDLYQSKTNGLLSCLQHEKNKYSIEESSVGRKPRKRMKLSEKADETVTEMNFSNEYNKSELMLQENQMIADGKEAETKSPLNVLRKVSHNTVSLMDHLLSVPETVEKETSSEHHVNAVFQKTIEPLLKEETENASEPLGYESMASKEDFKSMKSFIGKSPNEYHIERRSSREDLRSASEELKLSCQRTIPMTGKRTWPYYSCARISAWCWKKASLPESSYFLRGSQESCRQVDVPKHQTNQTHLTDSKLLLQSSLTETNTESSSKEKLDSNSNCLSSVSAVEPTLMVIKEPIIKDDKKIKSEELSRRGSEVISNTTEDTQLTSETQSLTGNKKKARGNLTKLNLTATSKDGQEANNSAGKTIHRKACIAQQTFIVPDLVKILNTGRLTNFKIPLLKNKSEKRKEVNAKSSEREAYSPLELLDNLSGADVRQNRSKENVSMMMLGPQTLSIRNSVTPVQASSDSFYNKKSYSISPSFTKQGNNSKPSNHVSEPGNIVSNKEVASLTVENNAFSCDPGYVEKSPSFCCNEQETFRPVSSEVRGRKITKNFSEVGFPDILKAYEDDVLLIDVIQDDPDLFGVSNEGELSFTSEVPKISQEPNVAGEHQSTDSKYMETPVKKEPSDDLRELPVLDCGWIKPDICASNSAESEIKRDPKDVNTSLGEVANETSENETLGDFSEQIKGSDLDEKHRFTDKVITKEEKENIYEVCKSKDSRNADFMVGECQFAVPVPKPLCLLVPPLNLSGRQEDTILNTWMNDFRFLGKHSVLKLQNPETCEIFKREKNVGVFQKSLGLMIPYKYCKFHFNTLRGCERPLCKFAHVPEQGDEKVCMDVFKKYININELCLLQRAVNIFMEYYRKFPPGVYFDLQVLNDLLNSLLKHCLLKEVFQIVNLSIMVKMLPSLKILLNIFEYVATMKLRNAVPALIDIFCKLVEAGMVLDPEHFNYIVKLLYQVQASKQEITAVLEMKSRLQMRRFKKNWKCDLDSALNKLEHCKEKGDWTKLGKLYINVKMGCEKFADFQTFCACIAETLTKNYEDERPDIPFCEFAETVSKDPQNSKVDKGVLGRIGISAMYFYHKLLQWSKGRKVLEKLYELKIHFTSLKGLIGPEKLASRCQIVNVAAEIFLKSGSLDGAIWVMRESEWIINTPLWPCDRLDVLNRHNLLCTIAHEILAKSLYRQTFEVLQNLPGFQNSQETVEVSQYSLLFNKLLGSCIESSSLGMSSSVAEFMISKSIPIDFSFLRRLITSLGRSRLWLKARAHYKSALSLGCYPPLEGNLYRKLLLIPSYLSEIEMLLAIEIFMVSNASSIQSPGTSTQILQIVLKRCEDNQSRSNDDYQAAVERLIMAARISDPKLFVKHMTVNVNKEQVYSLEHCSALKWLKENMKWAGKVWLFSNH
UniProt Q9UKE5: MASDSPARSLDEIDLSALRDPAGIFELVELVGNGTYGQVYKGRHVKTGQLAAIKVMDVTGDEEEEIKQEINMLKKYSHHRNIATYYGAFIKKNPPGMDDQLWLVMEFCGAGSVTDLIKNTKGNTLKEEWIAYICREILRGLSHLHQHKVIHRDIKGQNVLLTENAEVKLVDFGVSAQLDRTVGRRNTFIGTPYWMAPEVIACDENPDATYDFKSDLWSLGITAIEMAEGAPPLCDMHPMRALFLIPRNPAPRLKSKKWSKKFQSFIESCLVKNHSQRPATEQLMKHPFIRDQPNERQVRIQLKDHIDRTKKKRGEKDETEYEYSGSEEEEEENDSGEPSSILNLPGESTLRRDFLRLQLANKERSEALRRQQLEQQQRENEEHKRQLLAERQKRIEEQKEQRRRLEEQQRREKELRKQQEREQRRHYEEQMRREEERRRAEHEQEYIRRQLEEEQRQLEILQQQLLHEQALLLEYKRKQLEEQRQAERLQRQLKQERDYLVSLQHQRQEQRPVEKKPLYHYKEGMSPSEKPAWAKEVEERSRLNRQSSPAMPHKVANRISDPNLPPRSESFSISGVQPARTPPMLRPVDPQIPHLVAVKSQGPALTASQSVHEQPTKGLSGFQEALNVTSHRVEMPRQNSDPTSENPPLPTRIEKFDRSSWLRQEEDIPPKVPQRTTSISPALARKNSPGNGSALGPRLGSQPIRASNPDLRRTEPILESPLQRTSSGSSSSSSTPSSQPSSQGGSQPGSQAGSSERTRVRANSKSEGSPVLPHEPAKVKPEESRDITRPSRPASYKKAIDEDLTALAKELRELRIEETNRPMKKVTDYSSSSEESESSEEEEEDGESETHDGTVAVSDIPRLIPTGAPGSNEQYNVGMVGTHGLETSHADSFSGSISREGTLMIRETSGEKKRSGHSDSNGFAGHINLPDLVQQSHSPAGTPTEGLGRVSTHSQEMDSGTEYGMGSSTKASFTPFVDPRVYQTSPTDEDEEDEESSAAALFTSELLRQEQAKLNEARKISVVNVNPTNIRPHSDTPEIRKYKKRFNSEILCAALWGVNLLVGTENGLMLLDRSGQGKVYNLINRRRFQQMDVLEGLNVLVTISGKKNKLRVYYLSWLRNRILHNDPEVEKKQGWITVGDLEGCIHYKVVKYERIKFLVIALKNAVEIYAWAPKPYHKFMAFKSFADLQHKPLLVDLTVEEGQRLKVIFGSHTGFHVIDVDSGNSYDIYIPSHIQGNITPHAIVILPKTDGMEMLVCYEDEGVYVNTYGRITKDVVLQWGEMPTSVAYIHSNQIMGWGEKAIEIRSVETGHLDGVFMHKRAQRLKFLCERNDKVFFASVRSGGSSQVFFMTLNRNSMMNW
UniProt Q9P0T7: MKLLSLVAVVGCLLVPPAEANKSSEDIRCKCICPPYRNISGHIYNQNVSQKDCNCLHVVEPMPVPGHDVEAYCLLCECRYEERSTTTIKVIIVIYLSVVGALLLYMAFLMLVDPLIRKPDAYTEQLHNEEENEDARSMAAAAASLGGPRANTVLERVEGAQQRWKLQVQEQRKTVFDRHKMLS
UniProt Q8IY95: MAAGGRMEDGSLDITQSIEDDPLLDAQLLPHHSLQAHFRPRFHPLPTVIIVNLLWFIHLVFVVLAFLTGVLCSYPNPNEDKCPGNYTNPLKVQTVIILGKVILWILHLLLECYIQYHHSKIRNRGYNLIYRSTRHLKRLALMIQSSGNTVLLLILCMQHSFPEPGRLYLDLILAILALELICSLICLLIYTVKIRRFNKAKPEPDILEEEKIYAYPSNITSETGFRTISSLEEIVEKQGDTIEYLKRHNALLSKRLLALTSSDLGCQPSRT
UniProt Q96JJ7: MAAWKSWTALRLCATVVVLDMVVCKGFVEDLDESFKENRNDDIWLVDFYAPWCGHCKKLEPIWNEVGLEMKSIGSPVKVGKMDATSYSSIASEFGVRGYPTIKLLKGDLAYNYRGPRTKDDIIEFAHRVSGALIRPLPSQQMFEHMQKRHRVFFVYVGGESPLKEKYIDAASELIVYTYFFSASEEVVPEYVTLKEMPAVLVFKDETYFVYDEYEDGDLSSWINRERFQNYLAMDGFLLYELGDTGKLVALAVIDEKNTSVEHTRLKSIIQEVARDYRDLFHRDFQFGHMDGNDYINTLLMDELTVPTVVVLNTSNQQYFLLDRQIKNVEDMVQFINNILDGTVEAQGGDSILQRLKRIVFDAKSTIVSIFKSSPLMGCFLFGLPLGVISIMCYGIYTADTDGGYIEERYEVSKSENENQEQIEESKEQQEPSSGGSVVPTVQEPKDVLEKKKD
UniProt Q96SK2: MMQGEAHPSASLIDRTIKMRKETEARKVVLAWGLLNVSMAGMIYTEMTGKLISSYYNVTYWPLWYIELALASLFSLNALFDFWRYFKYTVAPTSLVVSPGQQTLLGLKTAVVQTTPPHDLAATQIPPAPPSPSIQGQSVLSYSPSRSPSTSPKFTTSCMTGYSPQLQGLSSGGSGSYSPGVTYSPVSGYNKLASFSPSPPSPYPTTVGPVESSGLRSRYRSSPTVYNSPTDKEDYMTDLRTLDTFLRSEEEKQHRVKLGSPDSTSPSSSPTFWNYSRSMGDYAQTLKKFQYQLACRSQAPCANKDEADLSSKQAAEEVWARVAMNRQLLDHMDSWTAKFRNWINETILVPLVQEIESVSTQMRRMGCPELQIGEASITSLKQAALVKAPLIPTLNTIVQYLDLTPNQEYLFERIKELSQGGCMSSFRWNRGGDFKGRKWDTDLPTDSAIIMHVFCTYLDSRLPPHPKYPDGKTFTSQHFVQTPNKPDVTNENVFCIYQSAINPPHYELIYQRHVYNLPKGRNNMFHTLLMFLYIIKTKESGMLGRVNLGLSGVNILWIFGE
UniProt O60784, whole entry, looked up: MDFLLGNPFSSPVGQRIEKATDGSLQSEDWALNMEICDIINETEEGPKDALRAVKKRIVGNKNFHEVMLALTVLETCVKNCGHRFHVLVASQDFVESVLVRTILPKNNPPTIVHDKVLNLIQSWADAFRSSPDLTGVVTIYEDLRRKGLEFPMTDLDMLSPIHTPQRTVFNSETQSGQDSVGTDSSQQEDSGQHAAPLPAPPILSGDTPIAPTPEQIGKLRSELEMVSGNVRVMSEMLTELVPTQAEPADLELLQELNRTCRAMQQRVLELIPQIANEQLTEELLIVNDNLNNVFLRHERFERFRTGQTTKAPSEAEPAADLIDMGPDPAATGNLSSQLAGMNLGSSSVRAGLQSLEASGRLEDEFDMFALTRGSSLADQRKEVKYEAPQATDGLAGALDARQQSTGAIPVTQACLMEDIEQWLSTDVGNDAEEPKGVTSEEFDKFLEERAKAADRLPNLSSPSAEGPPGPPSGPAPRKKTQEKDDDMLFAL
UniProt Q6UW68: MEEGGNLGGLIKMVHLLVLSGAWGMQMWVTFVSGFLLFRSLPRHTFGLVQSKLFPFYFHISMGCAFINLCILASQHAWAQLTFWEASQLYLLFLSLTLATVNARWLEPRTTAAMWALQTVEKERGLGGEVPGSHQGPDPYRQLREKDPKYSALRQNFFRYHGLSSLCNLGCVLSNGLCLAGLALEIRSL
UniProt Q9NVH6: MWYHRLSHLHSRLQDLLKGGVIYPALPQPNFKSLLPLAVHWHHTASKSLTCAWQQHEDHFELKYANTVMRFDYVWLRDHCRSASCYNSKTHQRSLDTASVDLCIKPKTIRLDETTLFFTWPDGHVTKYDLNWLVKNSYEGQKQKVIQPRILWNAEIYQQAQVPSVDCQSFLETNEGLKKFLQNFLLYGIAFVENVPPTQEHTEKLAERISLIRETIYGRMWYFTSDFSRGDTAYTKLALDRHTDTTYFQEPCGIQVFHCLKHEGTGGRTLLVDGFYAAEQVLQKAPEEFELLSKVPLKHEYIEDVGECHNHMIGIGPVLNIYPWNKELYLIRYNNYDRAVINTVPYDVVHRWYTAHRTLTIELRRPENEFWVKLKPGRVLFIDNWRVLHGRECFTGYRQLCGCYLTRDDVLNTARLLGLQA

[1] = compound: CC(=O)c1cnc2ccc(-c3cc(Cl)c(O)c(Cl)c3)nc2c1N[C@H]1CC[C@H](CN(C)C)CC1
Method in brief: as §1

ralimetinib = compound: CC(C)(C)Cn1c(N)nc2ccc(-c3[nH]c(C(C)(C)C)nc3-c3ccc(F)cc3)nc21 [ralimetinib]
Method in brief: as §1

[2] = compound: CC(C)(O)CC(=O)NCCn1ccc2ncnc(Nc3ccc(Oc4cccc(C(F)(F)F)c4)c(Cl)c3)c21
Method in brief: as §1

[3] = compound: CC(C)C1=C2N=C(C=C(N2N=C1)NCC3=CC=CC=C3)NCCCCCCN
Method in brief: as §1

[4] = compound: CC1=C(C(CC(=O)N1)C2=CC=C(C=C2)C(F)(F)F)C(=O)NC3=C(C=C4C(=C3)C=NN4)F
Method in brief: as §1

[5] = compound: CC1=C(C2=C(C=C1)C(=O)C3=CC=CC=C3N2CCCN)C
Method in brief: as §1

[6] = compound: CC1=C(C=C(C=C1)NC(=O)C2=CC(=CC=C2)C(C)(C)C#N)NC3=CC4=C(C=C3)N=CN(C4=O)C
Method in brief: as §1

[7] = compound: CC1=C(C=C(C=C1)NC(=O)C2=CC(=CC=C2)N(C)C)NC(=O)C3=CC=C(C=C3)O
Method in brief: as §1

[8] = compound: CC1=CC=C(C=C1)SC2=C3C=C(SC3=CN=C2)C(=O)N
Method in brief: as §1

[9] = compound: CCCS(=O)(=O)Nc1ccc(F)c(C(=O)c2c[nH]c3ncc(Cl)cc23)c1F
Method in brief: as §1

barasertib = compound: CCN(CCCOc1ccc2c(Nc3cc(CC(=O)Nc4cccc(F)c4)[nH]n3)ncnc2c1)CCOP(=O)(O)O [barasertib]
Method in brief: as §1

[10] = compound: CC[C@@H]1C(=O)N(C)c2cnc(Nc3ccc(C(=O)NC4CCN(C)CC4)cc3OC)nc2N1C1CCCC1
Method in brief: as §1

volasertib = compound: CC[C@@H]1C(=O)N(C)c2cnc(Nc3ccc(C(=O)N[C@H]4CC[C@H](N5CCN(CC6CC6)CC5)CC4)cc3OC)nc2N1C(C)C [volasertib]
Method in brief: as §1

[11] = compound: CCn1c(C(=O)N(C2CC2)C2CC2)cc2c3c(ncn3C)c(Nc3cc(C)n(C)n3)nc21
Method in brief: as §1

saracatinib = compound: CN1CCN(CCOc2cc(OC3CCOCC3)c3c(Nc4c(Cl)ccc5c4OCO5)ncnc3c2)CC1 [saracatinib]
Method in brief: as §1

sotrastaurin = compound: CN1CCN(c2nc(C3=C(c4c[nH]c5ccccc45)C(=O)NC3=O)c3ccccc3n2)CC1 [sotrastaurin]
Method in brief: as §1

vemurafenib = compound: CCCS(=O)(=O)Nc1ccc(F)c(C(=O)c2c[nH]c3ncc(-c4ccc(Cl)cc4)cc23)c1F [vemurafenib]
Method in brief: as §1

[12] = compound: CCn1cc(-c2ccnc3[nH]c(-c4cccc(CN(C)C)c4)cc23)c(-c2ccc(NC(=O)N(C)C)cc2)n1
Method in brief: as §1

[13] = compound: CN1CCC(CNc2ccc3ncc(-c4cccc(OC(F)(F)F)c4)n3n2)CC1
Method in brief: as §1

Measured: log2 fold change

TMEM222 (UniProt Q9H0R3)
inactive: ibrutinib -0.133 | [1] 0.047 | ralimetinib 0.047 | [2] -0.13 | [3] -0.032 | [4] 0.092 | [5] -0.074 | [6] 0.049 | [7] 0.018 | [8] 0.079 | [9] 0.008 | barasertib -0.02 | [10] -0.088 | volasertib 0.079 | [11] 0.091 | saracatinib -0.021 | sotrastaurin 0.134

TMPPE (UniProt Q6ZT21)
inactive: ibrutinib 0.035 | [1] -0.001 | ralimetinib 0.065 | [2] 0.023 | [3] -0.01 | [4] -0.008 | [6] -0.021 | [7] -0.008 | [8] 0.04 | vemurafenib 0 | [9] 0.031 | barasertib -0.004 | [10] 0.049 | volasertib 0.049 | [11] 0.001 | [12] -0.051 | [13] 0.058 | sotrastaurin 0.024

TOPAZ1 (UniProt Q8N9V7)
inactive: ibrutinib -0.086 | [1] 0.125 | ralimetinib 0.256 | [2] -0.123 | [3] 0.01 | [7] -0.562 | [8] 0.079 | vemurafenib 0.022 | [9] -0.129 | barasertib 0.279 | [10] -0.147 | volasertib -0.116 | [11] 0.723

TNRC6C isoform 2 (UniProt Q9HCJ0)
inactive: ibrutinib 0.064 | [1] 0.013 | ralimetinib 0.044 | [2] 0.01 | [3] -0.025 | [5] -0.172 | [7] -0.005 | [8] 0.018 | [9] -0.004 | barasertib -0.067 | [10] -0.15 | volasertib 0.013 | [11] 0.076 | [12] -0.279 | [13] 0.024 | saracatinib -0.034

TNIK isoform 5 (UniProt Q9UKE5)
inactive: ibrutinib 0.07 | [1] 0.345 | ralimetinib 0.016 | [2] -0.026 | [5] -0.091 | [6] 0.276 | [7] -0.004 | [8] -0.136 | [9] -0.118 | barasertib 0.021 | volasertib -0.087 | [11] -0.059 | [12] -0.051 | [13] -0.065 | saracatinib 0.022 | sotrastaurin 0.034

TMEM9 (UniProt Q9P0T7)
inactive: ibrutinib 0.017 | [1] -0.029 | ralimetinib 0.046 | [2] -0.043 | [3] -0.047 | [4] 0.037 | [5] -0.11 | [6] 0.061 | [7] 0.028 | [8] -0.08 | vemurafenib -0.016 | [9] 0.033 | barasertib 0.008 | volasertib 0.058 | [11] 0.058 | [12] 0.035 | [13] 0.018 | saracatinib -0.072 | sotrastaurin -0.005

TMEM192 (UniProt Q8IY95)
inactive: ibrutinib 0.03 | [1] 0.037 | ralimetinib 0.004 | [2] -0.02 | [3] -0.052 | [4] 0.002 | [5] -0.031 | [6] 0.013 | [7] 0.012 | [8] -0.01 | vemurafenib 0.094 | [9] 0.003 | barasertib 0.006 | [10] 0.029 | volasertib 0.004 | [11] -0.018 | [12] -0.003 | [13] 0.011 | saracatinib 0.009 | sotrastaurin 0.062

TMX3 (UniProt Q96JJ7)
inactive: ibrutinib -0.015 | [1] 0.006 | ralimetinib -0.03 | [2] -0.003 | [3] -0.018 | [4] -0.013 | [5] -0.013 | [6] 0.022 | [7] -0.003 | [8] -0.006 | vemurafenib 0.039 | [9] 0.016 | barasertib 0.026 | [10] 0.015 | volasertib -0.01 | [11] 0.024 | [12] -0.132 | [13] 0.011 | saracatinib 0.002 | sotrastaurin -0.003

2 successive records out of the list so far, for reference:
TNRC6C isoform 2 (UniProt Q9HCJ0)
inactive: ibrutinib 0.064 | [1] 0.013 | ralimetinib 0.044 | [2] 0.01 | [3] -0.025 | [5] -0.172 | [7] -0.005 | [8] 0.018 | [9] -0.004 | barasertib -0.067 | [10] -0.15 | volasertib 0.013 | [11] 0.076 | [12] -0.279 | [13] 0.024 | saracatinib -0.034

TNIK isoform 5 (UniProt Q9UKE5)
inactive: ibrutinib 0.07 | [1] 0.345 | ralimetinib 0.016 | [2] -0.026 | [5] -0.091 | [6] 0.276 | [7] -0.004 | [8] -0.136 | [9] -0.118 | barasertib 0.021 | volasertib -0.087 | [11] -0.059 | [12] -0.051 | [13] -0.065 | saracatinib 0.022 | sotrastaurin 0.034

Going on with the list.

TMEM209 (UniProt Q96SK2)
inactive: ibrutinib 0.141 | [1] 0.057 | ralimetinib 0.057 | [2] 0.043 | [3] -0.384 | [5] 0.073 | [6] 0.028 | [7] 0.035 | [8] -0.049 | [9] 0.055 | barasertib 0.053 | volasertib 0.048 | [11] 0.054 | [12] 0.114 | [13] -0.07 | saracatinib 0.128 | sotrastaurin 0.018

TNRC6A (UniProt Q8NDV7)
inactive: ibrutinib 0.006 | [1] 0.007 | [3] -0.081 | [4] 0.092 | [5] 0.031 | [6] -0.204 | [8] -0.026 | vemurafenib 0.051 | [9] -0.242 | barasertib -0.073 | [10] 0.141 | volasertib 0.076 | [12] 0.001 | [13] 0.009 | saracatinib 0.088 | sotrastaurin 0.046

TOM1 (UniProt O60784)
inactive: ibrutinib 0.043 | [1] -0.069 | [3] -0.393 | [5] -0.003 | [8] -0.028 | vemurafenib -0.049 | [9] -0.018 | barasertib -0.018 | [10] -0.037 | volasertib 0.022 | [12] 0.031 | [13] -0.043 | saracatinib 0.058

TMEM205 (UniProt Q6UW68)
inactive: ibrutinib 0.002 | [1] -0.007 | ralimetinib 0.044 | [2] 0.017 | [3] 0.005 | [4] 0.074 | [5] -0.049 | [6] 0.044 | [7] -0.026 | [8] 0.005 | vemurafenib -0.013 | [9] 0.035 | barasertib 0.114 | [10] -0.027 | volasertib 0.021 | [11] -0.071 | saracatinib 0.034 | sotrastaurin -0.003

TPT1 (UniProt E9PJF7)
inactive: ibrutinib 0.23 | [1] 0.019 | [3] 0.018 | [6] 0.115 | [8] 0.001 | [9] 0.031 | barasertib -0.323 | volasertib -0.048 | [12] 0.399 | [13] -0.109 | sotrastaurin -0.08

TMLHE isoform 8 (UniProt Q9NVH6)
inactive: ibrutinib -0.001 | [1] 0.011 | ralimetinib -0.004 | [2] -0.08 | [3] 0.025 | [4] -0.013 | [5] -0.011 | [6] 0.042 | [7] 0 | [8] 0.023 | vemurafenib -0.053 | [9] 0.015 | barasertib 0.079 | [10] 0.034 | volasertib 0.043 | [11] -0.04 | [12] -0.007 | [13] 0.057 | saracatinib 0.031 | sotrastaurin 0.001

From the supplement of paper PMC10849652
